No constants are given. Whether binding was seen depends on the method and setting. Some entries that bind do so weakly or less than the wild type.
Key:
[1] = target: human galectin-9 on the cell surface (human) (UniProt O00182); test: flow cytometry on cells of patient tumor-derived S2 and S3 fractions
[2] = target: human galectin-9 on the cell surface (human) (UniProt O00182); test: flow cytometry, % Gal9+ of CD3+ cells, colorectal carcinoma biopsy, S3 fraction by the legend
[3] = target: human galectin-9 on the cell surface (human) (UniProt O00182); test: flow cytometry, % Gal9+ of CD3+ cells, colorectal carcinoma biopsy, S2 fraction by the legend
[4] = target: human galectin-9 on the cell surface (human) (UniProt O00182); test: flow cytometry, % Gal9+ of CD11b+ cells, colorectal carcinoma biopsy, S3 fraction by the legend
[5] = target: human galectin-9 on the cell surface (human) (UniProt O00182); test: flow cytometry, % Gal9+ of EpCam+ cells, colorectal carcinoma biopsy, S3 fraction by the legend
[6] = target: human galectin-9 on the cell surface (human) (UniProt O00182); test: flow cytometry, % Gal9+ of CD11b+ cells, colorectal carcinoma biopsy, S2 fraction by the legend
[7] = target: human galectin-9 on the cell surface (human) (UniProt O00182); test: flow cytometry, % Gal9+ of EpCam+ cells, colorectal carcinoma biopsy, S2 fraction by the legend
[8] = target: human galectin-9 on the cell surface (human) (UniProt O00182); test: flow cytometry, % Gal9+ of CD3+ cells, pancreatic adenocarcinoma biopsy, S3 fraction by the legend
[9] = target: human galectin-9 on the cell surface (human) (UniProt O00182); test: flow cytometry, % Gal9+ of CD3+ cells, pancreatic adenocarcinoma biopsy, S2 fraction by the legend
[10] = target: human galectin-9 on the cell surface (human) (UniProt O00182); test: flow cytometry, % Gal9+ of CD11b+ cells, pancreatic adenocarcinoma biopsy, S3 fraction by the legend
[11] = target: human galectin-9 on the cell surface (human) (UniProt O00182); test: flow cytometry, % Gal9+ of EpCam+ cells, pancreatic adenocarcinoma biopsy, S3 fraction by the legend
[12] = target: human galectin-9 on the cell surface (human) (UniProt O00182); test: flow cytometry, % Gal9+ of CD11b+ cells, pancreatic adenocarcinoma biopsy, S2 fraction by the legend
[13] = target: human galectin-9 on the cell surface (human) (UniProt O00182); test: flow cytometry, % Gal9+ of EpCam+ cells, pancreatic adenocarcinoma biopsy, S2 fraction by the legend
[14] = target: human galectin-9 on the cell surface (human) (UniProt O00182); test: flow cytometry, % Gal9+ of CD3+ cells, second pancreatic adenocarcinoma biopsy, S3 fraction by the legend
[15] = target: human galectin-9 on the cell surface (human) (UniProt O00182); test: flow cytometry, % Gal9+ of CD3+ cells, second pancreatic adenocarcinoma biopsy, S2 fraction by the legend
[16] = target: human galectin-9 on the cell surface (human) (UniProt O00182); test: flow cytometry, % Gal9+ of CD11b+ cells, second pancreatic adenocarcinoma biopsy, S3 fraction by the legend
[17] = target: human galectin-9 on the cell surface (human) (UniProt O00182); test: flow cytometry, % Gal9+ of EpCam+ cells, second pancreatic adenocarcinoma biopsy, S3 fraction by the legend
[18] = target: human galectin-9 on the cell surface (human) (UniProt O00182); test: flow cytometry, % Gal9+ of CD11b+ cells, second pancreatic adenocarcinoma biopsy, S2 fraction by the legend
[19] = target: human galectin-9 on the cell surface (human) (UniProt O00182); test: flow cytometry, % Gal9+ of EpCam+ cells, second pancreatic adenocarcinoma biopsy, S2 fraction by the legend
[20] = target: cynomolgus galectin-9 CRD2 domain (cynomolgus monkey); test: in vitro
[21] = target: human galectin-9 on the cell surface (human) (UniProt O00182); test: flow cytometry, surface staining of CRL-2134 cells against HEK-293 cells
[22] = target: cynomolgus galectin-9 CRD2 domain (cynomolgus monkey); test: bead based binding
[23] = target: human galectin-9 on the cell surface (human) (UniProt O00182); test: cell based binding

Measured: binding

B1: G9.2-17 Fab (Fab, V domains shown)
VH: EVQLVESGGGLVQPGGSLRLSCAASGFTVSSSSIHWVRQAPGKGLEWVAYISSSSGYTYYADSVKGRFTISADTSKNTAYLQMNSLRAEDTAVYYCARYWSYPSWWPYRGMDYWGQGTLVTVSS
VL: DIQMTQSPSSLSASVGDRVTITCRASQSVSSAVAWYQQKPGKAPKLLIYSASSLYSGVPSRFSGSRSGTDFTLTISSLQPEDFATYYCQQSSTDPITFGQGTKVEIKR
not listed: [20] | [21] | [22] | [23]
binds: all other assays above

B2: G9.2-17 IgG4 (antibody, V domains shown)
VH: EVQLVESGGGLVQPGGSLRLSCAASGFTVSSSSIHWVRQAPGKGLEWVAYISSSSGYTYYADSVKGRFTISADTSKNTAYLQMNSLRAEDTAVYYCARYWSYPSWWPYRGMDYWGQGTLVTVSS
VL: DIQMTQSPSSLSASVGDRVTITCRASQSVSSAVAWYQQKPGKAPKLLIYSASSLYSGVPSRFSGSRSGTDFTLTISSLQPEDFATYYCQQSSTDPITFGQGTKVEIKR
binds: [20] | [21]

B3: G9.2-17 mIgG1 (mouse IgG1 version of G9.2-17) (antibody, V domains shown)
VH: EVQLVESGGGLVQPGGSLRLSCAASGFTVSSSSIHWVRQAPGKGLEWVAYISSSSGYTYYADSVKGRFTISADTSKNTAYLQMNSLRAEDTAVYYCARYWSYPSWWPYRGMDYWGQGTLVTVSS
VL: DIQMTQSPSSLSASVGDRVTITCRASQSVSSAVAWYQQKPGKAPKLLIYSASSLYSGVPSRFSGSRSGTDFTLTISSLQPEDFATYYCQQSSTDPITFGQGTKVEIKR
binds: [22] | [20] | [23]

From US20240287195A1
